# Structures can show the parent of a compound that is named as a salt. For at least one compound, name, drawing or mass did not settle the structure.
# Columns and labels:
# protein kinase C (PKC) = experiment: Inhibition of protein kinase C (PKC) (isolated enzyme); assay type: biochemical; settings: partially purified PKC from swine brain; histone H1 substrate; 10 μM ATP; pH 7.4; 32° C., 2 minutes; read-out: Test Procedure A: IC50, inhibition of PKC (isolated enzyme)
# Method: A: Inhibition of protein kinase C (PKC) (isolated enzyme): Protein kinase C (PKC) activity is determined by measuring the transfer of ^32 P-labelled phosphate from ^32 P-γ-ATP (10 μM)to histone H1 (200 μg/ml) as the substrate. Partially purified PKC from swine brain is used as the enzyme source [DEAE chromatography according to the method of U. Kikkawa et al. (Methods Enzymol. 99, 288, 1983)]. Activation of the PKC is effected by phospholipid vesicle prepared by ultrasound treatment of a mixture of 0.05 ml of phosphatidylserine (10 mg/ml) and 0.005 ml of diolein (10 mg/ml) in 5 ml of Tris-HCl buffer (20 mM, pH 7.4). The test substances are used in dimethyl sulphoxide (DMSO)/buffer in the concentration range 0.001-100 μM. The test is started by the addition of enzyme; after incubation at 32° C. for 2 minutes the reaction is stopped by the addition of 20% trichloroacetic acid (with 1% SDS and 1% sodium pyrophosphate). The precipitated radioactive histone protein is separated from excess ATP by filtration over nitrocellulose membranes and the radioactivity on the filter is measured in a scintillation counter. The inhibitory activity of the test substance is given as the micromolar concentration which is required to reduce the PKC activity by 50% (IC50 [μM]).
# [1] = target: cAMP-dependent protein kinase (PKA); experiment: Inhibition of cAMP-dependent protein kinase (PKA); assay type: biochemical; settings: partially purified PKA from swine brain; histone H1 substrate; 10 μM ATP; 2 μM cyclic AMP; pH 7.4; 32° C., 2 minutes; read-out: Test Procedure B: IC50, inhibition of PKA
# Method: B: Inhibition of CAMP-dependent protein kinase (PKA): PKA activity is determined by measuring the transfer of ^32 P-labelled phosphate from ^32 P-γ-ATP (10 μM) tO histone H1 (333 μg/ml) as the substrate. Partially purified PKA from swine brain is used as the enzyme source [DEAE chromatography according to the method of U. Kikkawa et al. (Methods Enzymol. 99, 288, 1983)]. Activation of the PKA is effected by cyclic AMP (2 μM) in Tris-HCl buffer (20 mM, pH 7.4). The test substances are used in dimethyl sulphoxide (DMSO)/buffer in the concentration range 0.001-100 μM. The test is started by the addition of enzyme; after incubation at 32° C. for 2 minutes the reaction is stopped by the addition of 20% trichloroacetic acid (with 1% SDS and 1% sodium pyrophosphate). The precipitated radioactive histone protein is separated from excess ATP by filtration over nitrocellulose membranes and the radioactivity on the filter is measured in a scintillation counter. The inhibitory activity of the test substance is given as the micromolar concentration which is required to reduce the PKA activity by 50% (IC50 [μM]).
smiles,measurement,setting,value
"COc1ccc(O)c(C(=O)c2ccc(C(=O)O[C@@H]3CCCNC[C@H]3NC(=O)c3cc(C)c(O)c(C)c3)cc2)c1F [Example 20, 4-(2-Fluoro-6-hydroxy-3-methoxy-benzoyl)-benzoic acid (3R,4R)-3-(4-hydroxy-3,5-dimethyl-benzoylamino)-azepan-4-yl ester hydrochloride (1:1)]",IC50,protein kinase C (PKC),11 nM
same,IC50,[1],15 nM

# — patent publication US5583222A, “Azepanes and their ring homologues having protein kinase inhibiting activity” (Hoffmann-La Roche Inc., priority 1994, dated 1996)
